According to publication PMC12040169 (PLOS Biology, 2025):
The list shows a part of the results.

test system: T1, CTL2-GFP (C. trachomatis L2/434/Bu, GFP-expressing); set-up: species or system HeLa; Intracellular C. trachomatis growth in HeLa cells, bulk GFP fluorescence relative to DMSO; details: bulk GFP, single well; 28.5 h, 10 µM; inhibitor
T1 construct: L2/434/Bu, GFP-expressing

SMILES | % of control remaining
O=C(C1CN(S(=O)(=O)c2ccccc2)CCN1S(=O)(=O)c1ccccc1)N1CCCCC1 (centres unmarked) [CBK262686] | 128.77%
CC(C)S(=O)(=O)N1C[C@@H](c2ccccc2)[C@H]2[C@H]1CCCCCN2C [CBK283083] | 135.741%
O=C(Cc1ccc(F)cc1)N1CCCC(c2nccnc2-c2cccc(C(F)(F)F)c2)C1 (centres unmarked) [CBK286210] | 101.334%
O=C(O)c1ccc(Oc2cccc([N+](=O)[O-])c2)cc1C(=O)O [CBK261179] | 96.9913%
COCCn1c(C)cc(C(=O)CSc2cc(C)c3ccccc3n2)c1C [CBK266437] | 111.982%
COc1ccccc1CNCc1ccccn1 [CBK262261] | 135.377%
NC(=O)c1cccc(-c2cnc(N)c(NC3CCOCC3)n2)c1 [CBK063836] | 119.505%
CC(C)c1ccc(/C=C/C(=O)NCC2COc3ccccc3O2)cc1 (centres unmarked) [CBK149619] | 76.5448%
O=C(Cn1ncc2cccn2c1=O)Nc1ccc(F)cc1 [CBK283672] | 100.269%
COCCN1CCCC(NC(C)c2ccc(OC)c(F)c2)C1 (centres unmarked) [CBK305099] | 123.088%
Cc1ccc(S(=O)(=O)NCC(=O)N2CCN(c3ccc(Cl)cc3)CC2)cc1 [CBK091315] | 128.575%
CS(=O)(=O)N1CCC(C(=O)NNC(=S)Nc2cccc3ccccc23)CC1 [CBK266811] | 128.85%
O=C1COc2ccccc2C/C=C/CC2(CCCNC2)CN1 (centres unmarked) [CBK292029] | 125.883%
O=C(NNC(=O)c1ccc2c(c1)C(=O)N(Cc1ccco1)C2=O)c1cccnc1 [CBK267403] | 122.372%
CNC(=O)c1ccc(-c2ccc(CNC(=O)C3(c4cccc(F)c4)CCCC3)cc2)nc1C [CBK286013] | 89.6051%
CC1(C)Cc2ccccc2C(NCCC(=O)O)=N1 [CBK023412] | 121.338%
Cc1oc(NC(=O)CN2CCN(c3ccccc3)CC2)c(C#N)c1C [CBK306044] | 144.929%
CN1C(CC(O)c2ccccc2)CCCC1C(=O)c1ccccc1 (centres unmarked) [CBK268467C] | 82.4974%
Cc1ccccc1NC(=O)Cn1c(=O)n(CC(=O)Nc2ccccc2C)c2ccccc21 [CBK266938] | 153.27%
O=C(NCCNCc1ccco1)c1ccc(F)cc1 [CBK266873G] | 80.4626%
Nc1ncc(-c2ccc(C(F)(F)F)cc2)c(C2CCCN(C(=O)CN3CCCC3)C2)n1 (centres unmarked) [CBK285649] | 134.745%
COCCNc1nc(-c2cccc3ccccc23)cnc1N [CBK063574] | 130.359%
COCCN1CCn2c(nc3cc(NC(=O)c4ccccc4)ccc32)C1 [CBK307410] | 116.007%
CN1C(=O)C2(N=C(N)NC(Nc3ccc(F)cc3)=N2)c2ccccc21 (centres unmarked) [CBK270285] | 120.495%
CC(NC(=O)C1(Cn2ccnc2)CC1)c1nc(-c2ccccn2)no1 (centres unmarked) [CBK307514] | 95.724%
CCN(CC)C(=O)C1CCCN(C(=O)NCCN2CCOCC2)C1 (centres unmarked) [CBK156128] | 116.507%
N[C@H](CCc1nc2ccccc2[nH]1)C(=O)O [CBK172614] | 109.669%

Taken from above.
In % of control remaining, CS(=O)(=O)N1CCC(C(=O)NNC(=S)Nc2cccc3ccccc23)CC1 [CBK266811] is entered as 128.85%
In % of control remaining, CCN(CC)C(=O)C1CCCN(C(=O)NCCN2CCOCC2)C1 (centres unmarked) [CBK156128] is entered as 116.507%
In % of control remaining, COCCN1CCCC(NC(C)c2ccc(OC)c(F)c2)C1 (centres unmarked) [CBK305099] is entered as 123.088%

Next part

SMILES | % of control remaining
CCOc1cc(NC2CCN(C(=O)CC3CCCCC3)CC2)ncn1 [CBK305506] | 85.5091%
CSc1nc(O)c(C(c2cccc([N+](=O)[O-])c2)c2c(O)nc(SC)nc2O)c(O)n1 [CBK265370] | 100%
CCOc1ccc(CN(C)C(=O)Nc2cc(C)on2)cc1 [CBK306216] | 111.447%
CCNC(=O)/N=C(\N)Nc1nc2ccccc2s1 [CBK028890] | 133.818%
COC(=O)c1c(NC(=S)Nc2ccc(Br)cn2)sc2c1CCC2 [CBK266862] | 147.034%
O=C(NCc1ccc(Cl)c(Cl)c1)N1CCN(c2cc(C(F)(F)F)ccn2)CC1 [CBK156434] | 86.8576%
Cc1cccc2c(=O)nc(-c3ccccc3Cl)oc12 [CBK152422] | 111.005%
CN1CCC(OC(=O)COc2ccc(Cl)cc2Cl)CC1 [CBK266389C] | 96.4727%
COc1ccc2[nH]cc(CCNC(=O)c3cccnc3)c2c1 [CBK122722] | 200.292%
O=S1(=O)CCN(Cc2cn(-c3ccc(-c4ccccc4)cc3)nn2)CC1 [CBK113105] | 108.055%
COc1cc(OC)nc(C(NC(=O)C2CCN(CCN3C(=O)c4ccccc4C3=O)CC2)c2ccc(F)cc2)n1 (centres unmarked) [CBK148083] | 81.9761%
Cc1nn(Cc2ccc(F)cc2)c2sc(C(=O)NCc3ccc(S(N)(=O)=O)cc3)cc12 [CBK295181] | 81.3949%
O=C(O)CC(C(=O)Nc1ccccc1)C1CCCO1 (centres unmarked) [CBK286809] | 108.713%
C=C(C)Cn1c(SCC(C)C)nnc1-c1scc(C)c1Cl [CBK200095] | 110.797%
COc1ccc(Br)cc1/C=C/C(=O)NC(=S)Nc1cc(C(=O)O)ccc1Cl [CBK265564] | 100%
O=C(O)CCc1ccc(-c2cccs2)n1-c1ccc(C(=O)O)cc1 [CBK266016] | 136.532%
N#Cc1ccccc1NC(=O)NCCC1=CCCCC1 [CBK044365] | 104.886%
Nc1n[nH]c2nc(-c3ccccc3)c3c(c12)CCC3 [CBK288178] | 111.274%
CC(C)(C)c1ccc(OCc2nc(N)c3c(N)n[nH]c3n2)cc1 [CBK008565] | 114.666%
c1ccc(COc2ccc3[nH]c4c(c3c2)CCNC42CCCN(CC3CC3)C2)cc1 (centres unmarked) [CBK040619] | 81.0055%
Cc1cc(C)nc(NC(=O)c2cccc(Cl)c2)n1 [CBK288165] | 104.453%
O=C(NCC(F)(F)F)c1cnc(-c2ccc(Cl)cc2)c(-c2ccco2)c1 [CBK037468] | 164.029%
O=C(O)CCC(=O)CCC(=O)c1cccs1 [CBK264807] | 106.621%
Cc1nn(C)c(C)c1C(=O)Nc1sc2c(c1C#N)CCC(C)C2 (centres unmarked) [CBK304645] | 99.7135%
CC(C)CCNC(=O)c1ccc(N2CCN(C(=O)c3ccccc3C(F)(F)F)CC2)nn1 [CBK153222] | 79.4428%
O=C(NCCN1CCOCC1)c1cc(-n2cnnc2)ccc1Cl [CBK268023] | 112.107%
CC(=O)NCc1cccc(-c2cc(COc3ccc4c(c3)OCO4)cnc2-c2ccc(Cl)cc2)c1 [CBK164106A] | 104.899%

SMILES | % of control remaining
CC1CCN(C(=O)CC(NC(N)=O)c2cccc(Br)c2)CC1 (centres unmarked) [CBK305788] | 147.541%
CS(=O)(=O)NC1CCCCC1 [CBK012234] | 162.016%
Cc1ccn(CCNC(=O)c2cc3cccc(C)c3nc2C)n1 [CBK282645] | 115.349%
CC(C)(C)OC(=O)N1CCN(c2cc(Cl)nc(N)n2)CC1 [CBK003505] | 121.833%
O=C(c1cccs1)n1ccc(-c2ccc3c(c2)CCO3)n1 [CBK006090] | 104.378%
CC(=O)N1CCc2nc(NC(=O)c3cccs3)sc2C1 [CBK282680] | 118.062%
CC1(OCc2ccccc2)SC(NC2CCCCCC2)=NC1=O (centres unmarked) [CBK105606] | 130.166%
COc1ccc(-c2nc3ccccn3c2CN2CCC(C(=O)O)CC2)cc1OC [CBK287063] | 128.731%
COCCNC(=O)N1CCN(Cc2ccccn2)CC1 [CBK304817] | 117.46%
COc1ccc(C)cc1NC(=O)CSc1nc(C)cc(C(F)(F)F)n1 [CBK270205] | 116.424%
O=C(OCCc1cccnc1)N1CCC(C(F)(F)F)CC1 [CBK200159] | 122.491%
Cc1ccc(C(=O)c2coc3ccc(OCC(=O)O)cc23)cc1 [CBK263084] | 116.648%
COc1cccc(-c2nc(C3CCN(CCc4ccc(F)cc4)CC3)n3ccccc23)c1 [CBK035373] | 123.686%
C[C@H](Nc1nc(-c2cccc3ncccc23)cnc1N)c1ccccc1 [CBK063771] | 118.11%
O=C(COc1ccc(S(=O)(=O)N2CCCC2)cc1Cl)Nc1ccc2c(c1)OCCO2 [CBK268559] | 83.1605%
Cn1ccnc1C(=O)N1C[C@H]2CCc3c(n[nH]c3C(F)(F)F)[C@H]2C1 [CBK283441] | 124.113%
CCOC(=O)Cn1ncc2c3sc(C)cc3n(C)c2c1=O [CBK282388] | 166.364%
CC1(C)NC(=O)N(CC(O)Cn2c3ccccc3c3ccccc32)C1=O (centres unmarked) [CBK304318] | 110.058%
CCS(=O)(=O)N1CC2CCCC(O)(c3ccc(F)cc3)C2C1 (centres unmarked) [CBK284363] | 124.293%
CCCc1[nH]nc(O)c1-c1cccc2ccccc12 [CBK075125] | 103.615%
CC(C)(C)N1C(=O)c2ccc(C(=O)Nc3ccccc3C(=O)O)cc2C1=O [CBK287004] | 106.237%
CC(C)[C@H](CO)Nc1nc(-c2ccc(CCC(=O)O)cc2)cn2ccnc12 [CBK037522] | 204.299%
Cc1ccnc(NS(=O)(=O)c2ccc(NS(C)(=O)=O)cc2)n1 [CBK261552] | 116.257%
N#Cc1ccc(CNC(=O)c2ccc3nc[nH]c3c2)cc1 [CBK153332] | 78.2232%
Cc1nc(CC(=O)NC(Cc2ccsc2)c2cccnc2)cs1 (centres unmarked) [CBK285389] | 92.2027%
O=C(O)CSc1ccc(Br)c2cccc(C(=O)O)c12 [CBK126919] | 201.499%
